Measured values: PubChem BioAssay AID1347076 (National Center for Advancing Translational Sciences (NCATS), 2019)
The campaign covered roughly 400,000 compounds. About 13,000 (3.2%) were called active. Inconclusive results, whose numbers are uncertain, are shown with a selection of clear calls. Calls come from the whole dose curve; as a rule, active = well fitted cell-killing curve with a large enough effect; inconclusive = small, poorly fitted or top-dose-only effect, or effect the other way; inactive = flat fitted curve, though single readings scatter. Potencies beside an inconclusive call are fits to weak or partial responses and may not hold up.

test: qHTS assay for MDR1-selective chemotherapeutics: Primary screen using the drug-selected MDR subline cells KB-V1; details: KB-V1 MDR cells viability, CellTiter-Glo, 72 h; activity change, negative = cytotoxicity: at 46.1 µM (top of the series); note: nearly all actives have a fitted effect of over 60% in size
Outline: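 Readout: CellTiter-Glo luminescence, 10 min after addition. Cells: KB-V1 MDR subline, 72 h at 37 degrees C with compound. Analysis: corrected, normalized data fitted to concentration-effect curves.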
% is set by controls: 0 for no effect and ±100 for the full control effect; potency is the fitted concentration of half-maximal effect.

| SMILES | Potency | activity change, negative = cytotoxicity |
| --- | --- | --- |
| O=C(Cc1ccccc1)Nc1c2c(nn1-c1cccc(Cl)c1)CS(=O)(=O)C2 | active: 20.6 µM | – |
| CCOC(=O)C1CCCN(C(=O)CN2C(=O)COc3ccc(C(C)(C)C)cc32)C1 (configuration not stated) | inconclusive: 20.6 µM [cytotoxic, single point] | – |
| COc1cc2c(cc1OC)C(c1ccc3c(c1)OCO3)C1=C(CC(C)(C)CC1=O)N2 (configuration not stated) | active: 0.731 µM | – |
| COC(=O)c1ccc(C2C(C(=O)c3cc4ccccc4o3)=C(O)C(=O)N2c2cc(C)on2)cc1 (configuration not stated) | – | inactive: 16.8% |
| CCN(CC)S(=O)(=O)c1cccc(C(=O)OCC(=O)c2ccc3c(c2)OCCO3)c1 | active: 13 µM | – |
| CCOCCOC(=O)COc1ccc2c(=O)c(Oc3ccc(OC)cc3)coc2c1 | inconclusive: 1.84 µM [rising, partial curve, poor fit] | – |
| COc1ccccc1C1C(C(=O)c2ccc(C)o2)=C(O)C(=O)N1c1cc(C)on1 (configuration not stated) | inconclusive: 11.6 µM [cytotoxic, partial curve, poor fit] | – |
| CS(=O)(=O)N(Cc1ccc(Cl)cc1)c1ccc(C(=O)N2CCN(c3ccccc3)CC2)cc1 | inconclusive: 8.2 µM [cytotoxic, partial curve] | – |
| O=C([C@H]1O[C@@H](n2ccc(=O)[nH]c2=O)[C@H](O)[C@@H]1O)N1CCSC1 | – | inactive: 14% |
| Cc1cccc(NC(=O)COC(=O)c2cc3ccccc3oc2=O)c1 | – | inactive: -1.78% |
| COc1ccc(Cn2c(=O)c3ccccc3n3c(-c4cccc(OC)c4OC)nnc23)cc1 | inconclusive: 3.66 µM [cytotoxic, partial curve, poor fit] | – |
| Cc1ccc(/C=N/NC(=O)c2cc(C)oc2C)cc1 | inconclusive: 29.1 µM [cytotoxic, partial curve, poor fit] | – |
| Cc1cc2c(n1-c1ccc(Cl)cc1)CC(C)(C)CC2=O | active: 13 µM | – |
| CCOC(=O)c1ccc(N=c2sc(C(=O)OC)cc(=O)n2-c2ccc(C(=O)OCC)cc2)cc1 | inconclusive: 23.1 µM [cytotoxic, single point] | – |
| Cc1cc[n+](CCc2ccccc2)cc1C | – | inactive: 6.88% |
| Cc1ccc(-c2nn(-c3ccccc3)cc2/C=C/C(=O)O)o1 | inconclusive: 29.1 µM [cytotoxic, single point] | – |
| O=C(CSc1nc2ccccc2c(=O)n1-c1ccc(F)cc1)Nc1cc(S(=O)(=O)N2CCOCC2)ccc1Cl | – | inactive: -3.59% |
| Cc1cc(C)cc(NC(=O)N2CCN(c3cc(-c4noc(C)n4)ccc3C)CC2)c1 | – | inactive: -26.6% |
| CCN(CC)c1ccc(NC(=O)COC(=O)Cc2ccsc2)cc1 | inconclusive: 16.4 µM [rising, single point] | – |
| O=C(NCc1ccccc1)C(c1ccc(-c2ccccc2)cc1)N1CCN(C(=O)C2CCCO2)CC1 (configuration not stated) | inconclusive: 23.1 µM [cytotoxic, partial curve] | – |
| CCn1c(N2CCN(S(=O)(=O)CC)CC2)nc2ccccc21 | inconclusive: 23.1 µM [cytotoxic, single point] | – |
| CCC(=O)N1CCc2cc(Br)cc(S(=O)(=O)CCC(=O)Nc3cccc(C)c3C)c21 | – | inactive: 0.824% |
| O=C(CSc1nnc(-c2cccnc2)n1-c1ccccc1)Nc1ccccc1 | inconclusive: 10.3 µM [cytotoxic, partial curve] | – |
| COc1ccc2o/c(=N\O)c(C(=O)Nc3ccccc3OC)cc2c1 | – | inactive: 16.7% |

As entered above:
For Potency, `CCOC(=O)C1CCCN(C(=O)CN2C(=O)COc3ccc(C(C)(C)C)cc32)C1` (configuration not stated) is listed with inconclusive: 20.6 µM [cytotoxic, single point]
For activity change, negative = cytotoxicity, `Cc1cc(C)cc(NC(=O)N2CCN(c3cc(-c4noc(C)n4)ccc3C)CC2)c1` is listed with inactive: -26.6%

Continuation.

| SMILES | Potency | activity change, negative = cytotoxicity |
| --- | --- | --- |
| CNc1ncnc2c1ncn2[C@@H]1O[C@H](CO)[C@@H](O)[C@H]1O | – | inactive: -10.7% |
| N#C/C(=C\c1c(N2CCCCC2)nc2ccccn2c1=O)C(=O)NCc1ccco1 | active: 2.91 µM | – |
| CSc1ccccc1NC(=O)CN(C)CC(=O)Nc1ccccc1C(F)(F)F | inconclusive: 16.4 µM [cytotoxic, single point] | – |
| CN(CC(=O)Nc1ccccc1Cl)C1CCCCC1 | – | inactive: -16% |
| Cc1cnc(C(=O)N(c2ccccc2)C(c2ccccc2)c2nc3ccccc3[nH]2)cn1 (configuration not stated) | – | inactive: 0% |
| COc1ccc(/C=C/C(=O)OC2CCCN(C)C2)cc1 (configuration not stated) | inconclusive: 2.31 µM [rising, partial curve, poor fit] | – |
| CS(=O)(=O)N(CC(=O)NCCc1ccccc1)C1CCCCC1 | active: 23.1 µM | – |
| CCCN(CCC)S(=O)(=O)c1ccc(C(=O)Nc2nnc(CSC)o2)cc1 | active: 7.31 µM | – |
| CCOC(=O)C1CCCN(C(=O)/C(=C/c2ccco2)NC(=O)c2ccccc2)C1 (configuration not stated) | inconclusive: 29.1 µM [cytotoxic, single point] | – |
| COc1ccc(NC(=O)C2CCN(S(=O)(=O)c3cccnc3)CC2)cc1Cl | inconclusive: 2.31 µM [rising, partial curve, poor fit] | – |
| Oc1ccc(NCc2ccc(OCc3ccccc3)cc2)cc1 | inactive | – |
| CC1CN(C(=S)Nc2cccc([N+](=O)[O-])c2)CC(C)O1 (configuration not stated) | – | inactive: -1.35% |
| CC(C)(C)C1CCC(=NNC(=O)C(=O)NCc2cccnc2)CC1 (configuration not stated) | inconclusive: 10.3 µM [rising, partial curve, poor fit] | – |
| CCCOc1ccc(NC(=O)C(=O)NCCCN2CCOCC2)cc1 | inconclusive: 2.91 µM [cytotoxic, full curve, poor fit] | – |
| Cc1ccc(C(=O)NC2c3ccccc3-c3ccccc32)cc1 | active: 5.17 µM | – |
| Cc1cc(F)ccc1NCC(=O)Nc1ccccc1Br | inconclusive: 18.4 µM [cytotoxic, single point] | – |
| COC(=O)c1ccc(Cn2ccc(=O)[nH]c2=O)cc1 | inconclusive: 32.6 µM [rising, single point] | – |
| O=C(Cn1nnc(-c2ccc(CN3CCOCC3)cc2)n1)Nc1nc(-c2ccccc2)cs1 | active: 18.4 µM | – |
| COc1ccc(S(=O)(=O)NNc2nc(C)cc(C)n2)cc1[N+](=O)[O-] | inconclusive: 29.1 µM [rising, single point] | – |
| Cc1ccc(S(=O)(=O)N2CCN=C2SC(C)c2ccccc2)cc1 (configuration not stated) | inconclusive: 18.4 µM [cytotoxic, single point] | – |
| CCN(CC)S(=O)(=O)c1ccc2c(c1)N(CC(=O)NCCCN1CCN(c3cc(Cl)ccc3C)CC1)C(=O)CO2 | active: 13 µM | – |
| CCOC(=O)C1(S(=O)(=O)c2ccccc2)CCN(Cc2ccccc2)CC1 | active: 16.4 µM | – |
| CCOc1ccccc1C1N=C(c2ccc(OC)cc2)CC(c2ccccc2O)N1 (configuration not stated) | – | inactive: -23.1% |
| Fc1ccc(OCCCCCN2CCCC2)cc1 | – | inactive: -11.8% |

Reformatted bar-delimited: 2 of the compounds above
SMILES | Potency | activity change, negative = cytotoxicity
Cc1cnc(C(=O)N(c2ccccc2)C(c2ccccc2)c2nc3ccccc3[nH]2)cn1 (configuration not stated) | – | inactive: 0%
Fc1ccc(OCCCCCN2CCCC2)cc1 | – | inactive: -11.8%

(cont.)

| SMILES | Potency | activity change, negative = cytotoxicity |
| --- | --- | --- |
| O=c1c(N=Nc2ccc(O)cc2)c(-c2ccccc2)[nH]n1-c1ccc([N+](=O)[O-])cc1 | inconclusive: 8.2 µM [cytotoxic, partial curve, poor fit] | – |
| Cc1ccc(S(=O)(=O)N2CCC(N3CCC(C)CC3)CC2)cc1 | inconclusive: 16.4 µM [cytotoxic, partial curve, poor fit] | – |
| COc1ccc(-c2c3c(=O)n(C)c(=O)n(C)c3c3c(-c4ccccc4)nc4ccccc4n23)cc1 | – | inactive: 4.26% |
| COc1ccc(/C=N/NC(=O)c2nnn(-c3nonc3N)c2-c2cccs2)c(OC)c1 | inconclusive: 9.2 µM [rising, partial curve, poor fit] | – |
| COCCCNc1nc2c(c(=O)n(C)c(=O)n2C)n1Cc1cccc(OC)c1 | inconclusive: 9.2 µM [cytotoxic, partial curve, poor fit] | – |
| CCOc1ccc(C2C3=C(CCCC3=O)OC(N)=C2[N+](=O)[O-])cc1 (configuration not stated) | – | inactive: 6.26% |
| CCOc1cc(N2CCOCC2)c(OCC)cc1NC(=O)c1cc(S(=O)(=O)N2CCOCC2)ccc1Cl | inconclusive: 16.4 µM [cytotoxic, single point] | – |
| Cc1nn(-c2ccc([N+](=O)[O-])cc2)c2c1C(c1cccc(Br)c1)N1C(=N2)C(=O)Nc2ccccc21 (configuration not stated) | inconclusive: 4.11 µM [cytotoxic, full curve] | – |
| O=C(Nc1ccccc1)/C(=C\c1ccc2c(c1)OCO2)NC(=O)c1ccco1 | – | inactive: -21.5% |
| C=CCn1c(N2CCN(c3ccc(OC)cc3)CC2)nc2c1c(=O)n(C)c(=O)n2C | inconclusive: 10.3 µM [cytotoxic, partial curve] | – |
| Cc1ccccc1OCCOC(=O)c1c(-c2ccccc2)noc1C | inconclusive: 6.51 µM [cytotoxic, full curve, poor fit] | – |
| CN(Cc1ccccc1)C(=O)c1cccc(NC(=O)Cc2cccc(NC(=O)C3CCN(C(=O)c4ccccc4)CC3)c2)c1 | – | inactive: 17.9% |
| COc1cc2cncc(Cc3ccc(Cl)cc3)c2cc1OC | – | inactive: 0% |
| COc1cccc(C(=O)Nc2c3c(nc4c2CCC4)CCCC3)c1 | active: 14.6 µM | – |
| CCCc1nc(C)cc(N2CCN(c3ccccc3)CC2)n1 | inconclusive: 20.6 µM [cytotoxic, single point] | – |
| CCOc1ccc2c(c1)C(C)=CC(C)(C)N2S(=O)(=O)c1ccc(F)cc1 | inconclusive: 29.1 µM [cytotoxic, single point] | – |
| O=C(Nc1cc(C(F)(F)F)ccc1N1CCOCC1)c1cn2ccccc2n1 | – | inconclusive: -34.8% |
| O=[N+]([O-])c1cc(/C=N/O)ccc1SCc1ccccc1Cl | active: 20.6 µM | – |
| CCC(=O)c1ccc(OCCSc2ncccn2)cc1 | – | inactive: -51% |
| Cc1ccc(S(=O)(=O)N/N=C2\C(=O)C3(C)CCC2C3(C)C)cc1 (configuration not stated) | inconclusive: 25.9 µM [rising, single point] | – |
| Cc1ccc(SCc2[nH]nc3c2C(c2ccco2)C(C#N)=C(N)O3)cc1 (configuration not stated) | – | inactive: 4.41% |
| COC(=O)C(CC(C)C)NC(=O)/C=C/c1ccccc1Cl (configuration not stated) | inconclusive: 0.0092 µM [rising, full curve] | – |
| COc1cc(-c2cc3nc(NC4CCCCC4)ccn3n2)cc(OC)c1OC | inconclusive: 20.6 µM [cytotoxic, single point] | – |
| CCC(=O)N(Cc1cc2cc(OC)ccc2[nH]c1=O)c1ccccc1C | inconclusive: 29.1 µM [cytotoxic, single point] | – |
